The target in this test is Flag-DDX39B (DExD-box helicase 39B) (UniProt Q13838). Description: affinity purification with mass spectrometry; Flag-DDX39B immunoprecipitated with anti-Flag magnetic beads overnight at 4 °C, washed 5 times with TBS (150 mM NaCl, 50 mM Tris-HCl pH 7.4); SDS-PAGE gel bands of around 70 kDa and above cut out for mass spectrometry; proteins with at least 4 unique peptides kept.

Protein sequences, listed by entry. Tags and fused reporters are not part of them. Lines headed by an entry give the natural chain unless they say otherwise; changes in a name come on top.
UniProt Q13838: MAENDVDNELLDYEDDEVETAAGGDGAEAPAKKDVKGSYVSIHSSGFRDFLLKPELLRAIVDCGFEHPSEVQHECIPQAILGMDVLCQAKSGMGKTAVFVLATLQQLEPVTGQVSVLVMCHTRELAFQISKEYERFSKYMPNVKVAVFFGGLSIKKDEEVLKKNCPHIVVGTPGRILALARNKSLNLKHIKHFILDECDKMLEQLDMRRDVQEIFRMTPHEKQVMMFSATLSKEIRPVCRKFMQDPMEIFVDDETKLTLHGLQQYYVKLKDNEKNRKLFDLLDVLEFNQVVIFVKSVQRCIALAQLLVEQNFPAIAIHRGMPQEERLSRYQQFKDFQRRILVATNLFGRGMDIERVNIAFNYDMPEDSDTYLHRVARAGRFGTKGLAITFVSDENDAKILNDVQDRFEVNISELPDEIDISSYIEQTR
UniProt P12814: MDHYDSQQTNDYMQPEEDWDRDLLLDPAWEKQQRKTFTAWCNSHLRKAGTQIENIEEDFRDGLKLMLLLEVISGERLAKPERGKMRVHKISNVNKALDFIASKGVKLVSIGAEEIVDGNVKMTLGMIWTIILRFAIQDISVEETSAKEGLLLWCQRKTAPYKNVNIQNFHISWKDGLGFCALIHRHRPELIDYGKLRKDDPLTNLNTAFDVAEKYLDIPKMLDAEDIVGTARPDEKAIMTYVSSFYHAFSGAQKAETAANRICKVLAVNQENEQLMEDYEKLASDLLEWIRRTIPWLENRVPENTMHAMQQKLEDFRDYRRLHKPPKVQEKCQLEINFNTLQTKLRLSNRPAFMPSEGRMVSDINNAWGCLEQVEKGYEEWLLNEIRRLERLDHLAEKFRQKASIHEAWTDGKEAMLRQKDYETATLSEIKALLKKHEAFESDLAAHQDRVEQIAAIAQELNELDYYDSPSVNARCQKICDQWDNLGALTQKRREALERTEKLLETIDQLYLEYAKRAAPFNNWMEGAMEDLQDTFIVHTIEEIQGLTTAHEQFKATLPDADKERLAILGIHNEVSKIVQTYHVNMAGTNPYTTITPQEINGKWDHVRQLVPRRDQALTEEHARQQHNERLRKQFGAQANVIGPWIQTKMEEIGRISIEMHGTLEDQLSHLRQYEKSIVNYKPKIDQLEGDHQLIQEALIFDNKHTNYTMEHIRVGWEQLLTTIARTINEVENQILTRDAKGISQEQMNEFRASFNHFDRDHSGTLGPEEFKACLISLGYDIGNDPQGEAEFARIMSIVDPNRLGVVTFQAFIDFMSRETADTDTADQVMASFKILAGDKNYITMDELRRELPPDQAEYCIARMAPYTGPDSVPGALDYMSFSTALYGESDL
UniProt O43707: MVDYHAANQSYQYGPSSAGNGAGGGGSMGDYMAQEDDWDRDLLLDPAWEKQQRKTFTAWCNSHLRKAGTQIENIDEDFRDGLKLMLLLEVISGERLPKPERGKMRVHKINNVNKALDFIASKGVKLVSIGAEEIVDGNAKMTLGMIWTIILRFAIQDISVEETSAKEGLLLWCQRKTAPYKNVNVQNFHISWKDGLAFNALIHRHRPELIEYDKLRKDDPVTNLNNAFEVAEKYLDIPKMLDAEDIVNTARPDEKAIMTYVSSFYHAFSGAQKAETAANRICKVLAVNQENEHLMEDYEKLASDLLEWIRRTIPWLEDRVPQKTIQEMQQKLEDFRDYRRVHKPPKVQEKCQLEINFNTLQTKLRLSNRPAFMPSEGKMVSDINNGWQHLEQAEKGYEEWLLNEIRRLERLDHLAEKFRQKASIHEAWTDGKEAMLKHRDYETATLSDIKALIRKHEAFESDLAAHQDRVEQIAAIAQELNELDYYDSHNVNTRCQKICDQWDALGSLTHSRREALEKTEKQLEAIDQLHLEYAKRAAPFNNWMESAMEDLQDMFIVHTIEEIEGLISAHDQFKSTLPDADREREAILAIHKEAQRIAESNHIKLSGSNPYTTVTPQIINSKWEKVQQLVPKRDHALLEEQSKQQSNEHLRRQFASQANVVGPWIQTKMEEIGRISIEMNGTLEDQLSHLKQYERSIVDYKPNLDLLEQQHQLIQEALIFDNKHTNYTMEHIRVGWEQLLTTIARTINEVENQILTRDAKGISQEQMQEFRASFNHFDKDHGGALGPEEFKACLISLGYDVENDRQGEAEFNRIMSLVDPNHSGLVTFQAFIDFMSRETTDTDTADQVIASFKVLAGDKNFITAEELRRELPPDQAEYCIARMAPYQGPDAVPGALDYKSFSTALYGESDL
UniProt P46940: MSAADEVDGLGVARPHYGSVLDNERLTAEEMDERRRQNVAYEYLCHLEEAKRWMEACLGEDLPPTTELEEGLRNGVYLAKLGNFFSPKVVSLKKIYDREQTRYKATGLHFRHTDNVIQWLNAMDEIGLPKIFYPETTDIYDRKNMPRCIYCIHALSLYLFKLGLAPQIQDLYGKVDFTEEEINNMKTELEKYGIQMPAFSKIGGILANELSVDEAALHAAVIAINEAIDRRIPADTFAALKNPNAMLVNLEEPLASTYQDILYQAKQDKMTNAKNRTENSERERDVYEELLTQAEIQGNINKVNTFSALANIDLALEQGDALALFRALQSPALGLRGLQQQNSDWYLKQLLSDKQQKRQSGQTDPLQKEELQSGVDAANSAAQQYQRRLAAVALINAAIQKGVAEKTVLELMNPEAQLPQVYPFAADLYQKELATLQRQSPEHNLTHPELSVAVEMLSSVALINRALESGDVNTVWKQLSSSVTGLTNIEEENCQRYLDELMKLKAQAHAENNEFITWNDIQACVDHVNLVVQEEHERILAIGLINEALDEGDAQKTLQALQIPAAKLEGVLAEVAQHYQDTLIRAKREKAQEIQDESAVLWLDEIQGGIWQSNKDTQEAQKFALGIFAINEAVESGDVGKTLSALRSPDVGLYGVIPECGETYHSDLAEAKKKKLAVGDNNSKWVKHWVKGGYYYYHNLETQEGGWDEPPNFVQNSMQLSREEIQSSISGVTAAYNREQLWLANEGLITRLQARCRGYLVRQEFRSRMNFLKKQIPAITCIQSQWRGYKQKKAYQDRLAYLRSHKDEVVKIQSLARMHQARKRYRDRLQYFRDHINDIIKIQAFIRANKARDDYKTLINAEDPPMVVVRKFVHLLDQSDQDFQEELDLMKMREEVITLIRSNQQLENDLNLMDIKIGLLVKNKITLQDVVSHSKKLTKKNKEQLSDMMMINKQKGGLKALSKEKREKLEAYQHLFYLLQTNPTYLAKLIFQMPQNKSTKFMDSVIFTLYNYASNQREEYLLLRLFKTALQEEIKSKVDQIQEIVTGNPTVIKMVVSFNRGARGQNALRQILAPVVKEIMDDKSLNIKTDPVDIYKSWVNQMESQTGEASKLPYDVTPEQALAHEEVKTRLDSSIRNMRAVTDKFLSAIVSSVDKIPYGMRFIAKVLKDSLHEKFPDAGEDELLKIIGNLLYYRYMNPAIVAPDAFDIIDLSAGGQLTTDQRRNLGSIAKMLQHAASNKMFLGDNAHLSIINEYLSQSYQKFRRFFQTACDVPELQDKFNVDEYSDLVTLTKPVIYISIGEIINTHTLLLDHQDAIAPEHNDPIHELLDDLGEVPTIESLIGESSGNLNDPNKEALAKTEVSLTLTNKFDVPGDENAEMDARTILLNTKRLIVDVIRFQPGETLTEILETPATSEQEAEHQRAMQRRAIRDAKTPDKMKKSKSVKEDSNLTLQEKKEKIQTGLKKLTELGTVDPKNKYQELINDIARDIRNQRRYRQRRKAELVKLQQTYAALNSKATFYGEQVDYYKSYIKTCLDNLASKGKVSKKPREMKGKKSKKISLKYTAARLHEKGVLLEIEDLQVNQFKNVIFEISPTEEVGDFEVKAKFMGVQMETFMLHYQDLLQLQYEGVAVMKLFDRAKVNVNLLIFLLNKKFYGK
UniProt Q13263: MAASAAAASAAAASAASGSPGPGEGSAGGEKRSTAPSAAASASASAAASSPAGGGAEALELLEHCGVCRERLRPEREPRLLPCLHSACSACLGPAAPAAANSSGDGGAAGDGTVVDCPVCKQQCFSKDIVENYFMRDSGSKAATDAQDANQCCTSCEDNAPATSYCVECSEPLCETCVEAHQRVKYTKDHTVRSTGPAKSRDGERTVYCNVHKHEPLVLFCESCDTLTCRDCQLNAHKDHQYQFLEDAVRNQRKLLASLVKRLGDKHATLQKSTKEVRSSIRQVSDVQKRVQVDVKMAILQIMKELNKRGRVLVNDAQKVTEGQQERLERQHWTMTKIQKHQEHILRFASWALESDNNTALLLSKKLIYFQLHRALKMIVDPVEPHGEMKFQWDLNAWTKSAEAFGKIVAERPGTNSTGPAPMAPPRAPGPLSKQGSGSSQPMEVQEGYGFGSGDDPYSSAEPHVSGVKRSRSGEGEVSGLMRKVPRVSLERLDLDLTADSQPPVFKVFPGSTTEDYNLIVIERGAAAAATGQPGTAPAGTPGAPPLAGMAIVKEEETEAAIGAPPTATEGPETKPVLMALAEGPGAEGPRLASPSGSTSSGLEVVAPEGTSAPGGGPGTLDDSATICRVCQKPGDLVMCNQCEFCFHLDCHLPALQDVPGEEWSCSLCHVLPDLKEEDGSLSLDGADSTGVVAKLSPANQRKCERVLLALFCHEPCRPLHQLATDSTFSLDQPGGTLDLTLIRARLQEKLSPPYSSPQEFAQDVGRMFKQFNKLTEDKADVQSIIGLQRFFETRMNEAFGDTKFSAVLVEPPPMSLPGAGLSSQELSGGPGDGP

No constants are given. Whether binding was seen depends on the method and setting. In cells and extracts the contact can be indirect. These calls come from enrichment with a bait or labelling near it, and not all partners need be listed.

Turning to ACTN1 (from UniProt P12814 1-892), the binding result is recorded as “binds”.
For ACTN4 (from UniProt O43707 1-911) the value was “binds”; for IQGAP1 (from UniProt P46940 1-1657), “binds”; for “TRIM28 (tripartite motif-containing 28), endogenous (from UniProt Q13263 1-835)”, “binds”.

(Values after paper PMC12263876, “DDX39B K63-linked ubiquitination mediated by TRIM28 promotes NSCLC metastasis by enhancing ECAD lysosomal degradation” (Signal Transduction and Targeted Therapy, 2025).)
